Results: publication PMC6216208
Results are given in words; binding and its absence hold for the method and conditions named. Binding seen in cells or lysates may run through a third protein. Some binding calls cover weakened binding; strength is not graded here. Tags and fused reporters may be left off the sequences shown.

Chains of the proteins cited; added tags and fusions are not shown.
UniProt P15056: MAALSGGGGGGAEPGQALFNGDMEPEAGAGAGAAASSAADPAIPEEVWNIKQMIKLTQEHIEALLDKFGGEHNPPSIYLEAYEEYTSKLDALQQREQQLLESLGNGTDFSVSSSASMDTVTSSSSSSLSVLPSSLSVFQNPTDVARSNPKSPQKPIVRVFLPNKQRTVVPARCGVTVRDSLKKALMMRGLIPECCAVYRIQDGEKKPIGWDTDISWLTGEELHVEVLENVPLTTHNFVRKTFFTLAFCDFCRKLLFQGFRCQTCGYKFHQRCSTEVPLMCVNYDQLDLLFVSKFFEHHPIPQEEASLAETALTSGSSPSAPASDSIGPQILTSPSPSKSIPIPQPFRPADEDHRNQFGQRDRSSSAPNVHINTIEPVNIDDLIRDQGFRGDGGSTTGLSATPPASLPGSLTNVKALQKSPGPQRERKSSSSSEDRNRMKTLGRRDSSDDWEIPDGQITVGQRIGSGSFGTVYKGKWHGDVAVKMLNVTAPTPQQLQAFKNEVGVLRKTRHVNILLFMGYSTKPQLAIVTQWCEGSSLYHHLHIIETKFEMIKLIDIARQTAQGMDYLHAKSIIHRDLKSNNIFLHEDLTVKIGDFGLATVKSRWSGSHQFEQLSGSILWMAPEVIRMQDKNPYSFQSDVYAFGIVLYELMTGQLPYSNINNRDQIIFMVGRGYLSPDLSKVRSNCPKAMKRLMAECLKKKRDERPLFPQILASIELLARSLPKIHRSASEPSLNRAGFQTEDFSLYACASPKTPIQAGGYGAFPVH

Biological target: T1, c-Myc-tagged Rit2 (protein product of the Ras-like without CAAX 2 gene, RIT2) (human) (UniProt Q99578)
T1 sequence: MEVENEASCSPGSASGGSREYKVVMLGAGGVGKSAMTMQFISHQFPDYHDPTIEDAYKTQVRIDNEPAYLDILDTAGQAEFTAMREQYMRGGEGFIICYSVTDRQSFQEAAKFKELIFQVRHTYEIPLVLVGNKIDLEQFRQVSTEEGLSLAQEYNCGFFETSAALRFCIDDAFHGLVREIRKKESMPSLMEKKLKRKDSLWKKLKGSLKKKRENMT
Experiment: co-IP; HEK293T cells transiently transfected with c-Myc-Rit2 and/or V5-B-Raf, lysed after 48 h in RIPA buffer with protease and phosphatase inhibitors; lysates incubated with anti-c-Myc or anti-V5 antibody-conjugated agarose beads, washed five times, immunoblot

V5-tagged B-Raf (from UniProt P15056 1-766)
binding: binds
